Experimental findings from patent US20220033813 are described below.

Construct, isoform or probe ends are uncertain for at least one entry.

The data set concerns Polycomb Repressive Complex 2 (PRC2). Kind of data set: EMSA. The note with it: L-RNA; terminal D-deoxyadenosine residues (D-dA); 100 mM KCl, 2.5 mM MgCl2, 30 C; similar to D enantiomer; purified recombinant protein; protein details: purchased from Active Motif (Carlsbad, Calif.); label: Cy3; synthetic backbone; mirror-image nucleic acid; variant of D-(G3A4)4.

On to GGGAAAA [L-(G3A4)4], for which the binding result is reported as “binds”.
